# PubChem BioAssay AID2718 (Broad Institute, 2010)
# Amino acid sequences for entries named in this document (tags omitted).
# UniProt O15379, whole entry, looked up: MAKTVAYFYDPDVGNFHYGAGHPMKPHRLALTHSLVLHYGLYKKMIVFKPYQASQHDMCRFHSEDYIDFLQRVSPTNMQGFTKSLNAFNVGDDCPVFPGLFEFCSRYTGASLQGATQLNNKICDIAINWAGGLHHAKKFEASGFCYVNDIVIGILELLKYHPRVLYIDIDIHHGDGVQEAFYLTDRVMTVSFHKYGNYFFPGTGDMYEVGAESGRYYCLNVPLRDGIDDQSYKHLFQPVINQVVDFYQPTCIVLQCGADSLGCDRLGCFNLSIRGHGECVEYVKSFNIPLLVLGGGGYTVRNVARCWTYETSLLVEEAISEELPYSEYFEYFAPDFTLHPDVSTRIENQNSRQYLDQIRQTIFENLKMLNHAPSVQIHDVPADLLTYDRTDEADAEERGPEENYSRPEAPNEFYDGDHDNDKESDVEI
# In all, about 320,000 compounds went through this assay and about 480 (0.15%) were called active. The inconclusive results got no clear call from the source; some entries with a clear call stand among them for comparison. Cut-off read from the data, not from the text of the source: active = inhibition above about 26% (passing the limit was not always enough); inconclusive = no clear call, values can overlap the other calls.
# Molecular target: Histone deacetylase 3 (Homo sapiens) (UniProt O15379)
# Experiment: HDAC3 deacetylase inhibitors, primary screen, biochemical, fluorescence, cell-free homogeneous (AID 2718)
# Conditions: recombinant HDAC3, fluorogenic peptide/trypsin coupled, at 8.3 µM, active compounds read high
row,Structure (SMILES),inhibition
1,COc1ccc(CN2CCN(Cc3ccccc3F)CC2)c(OC)c1,inconclusive: 22%
2,O=C(COC(=O)c1c(Cl)cccc1Cl)NC1CCCCCCC1,inactive: -2.13%
3,O=C(CSc1nnc(C2CC2)n1C1CC1)c1ccc(Br)s1,inactive: 5.31%
4,COc1cc(/C=C2\C(=N)N3N=CSC3=NC2=O)cc(Br)c1OC(=O)c1ccco1,inactive: 0.426%
5,CCCCN(C(=O)c1cccs1)C1CCS(=O)(=O)C1 (configuration not stated),inconclusive: 23.5%
6,CN(Cc1ccccc1)c1nc2nonc2nc1N1CCCC(CN2CCCC2=O)C1 (configuration not stated),inconclusive: 17.4%
7,O=C1CC(/C=C/c2cccnc2)=Nc2ccccc2N1,inconclusive: 17%
8,COc1ccc(NC(=O)C(C)Sc2nnc(C3CC3)n2C2CC2)cc1 (configuration not stated),inactive: 2.77%
9,Cc1cc(Sc2nnc(/N=C/N(C)C)s2)c2ccccc2n1,inactive: 5.79%
10,CCN(CC)S(=O)(=O)c1ccc(N=Nc2c(N)[nH]c(=O)[nH]c2=O)cc1,inconclusive: 5.45%
11,Cc1ccc(S(=O)(=O)n2nc(OC(=O)c3ccccc3C)cc2N)cc1,inactive: 5.03%
12,Cc1ccc(C(OCC(O)CN2CCCCC2CO)c2ccccc2)cc1 (configuration not stated),inactive: -2.75%
13,Cc1ccc(NC(=O)CSc2nnc([C@H](C)NC(=O)OC(C)(C)C)o2)c(C)c1,inactive: -1.11%
14,Cc1ccc(OCCn2c(C3CC(=O)N(Cc4ccccc4)C3)nc3ccccc32)cc1 (configuration not stated),inconclusive: 15.6%
15,CN1CCN(Cc2nc(Cc3ccccc3)no2)CC1c1ccccc1 (configuration not stated),inactive: 4.64%
16,Cn1c(=O)c(=O)n(C)c2cc(N3CCOCC3)c(NS(=O)(=O)c3ccc(F)c(Cl)c3)cc21,inactive: 0.857%
17,CCOC(=O)c1[nH]n(-c2ccc(Cl)cc2)c(=O)c1C,inconclusive: 17.8%
18,Cc1cc(C)cc(-n2ccnc2SCC(=O)Nc2ccc3c(c2)OCCO3)c1,inconclusive: 17%
19,Cc1nc(-c2c(-c3ccc(O)cc3O)noc2C(F)(F)F)cs1,inconclusive: 18.4%

row,Structure (SMILES),inhibition
1,Cc1cc(=O)n(-c2ccc(O)cc2)[nH]1,inactive: -11.7%
2,Cc1oc(-c2cccc(F)c2)nc1CN1CCCN(C(=O)c2ccco2)CC1,inconclusive: 14.5%
3,O=C(CCN1C(=O)c2ccccc2C1=O)N1CCN(c2ccccc2)CC1,inconclusive: 20.5%
4,CCOC(=O)N1CCN(c2c(N3CCN(c4cccc(C(F)(F)F)c4)CC3)c(=O)c2=O)CC1,inconclusive: 34.1%
5,CCOC(=O)c1c(S(=O)(=O)Nc2ccccn2)c(C)n(C)c1C,inconclusive: 12.5%
6,Nn1c(SCC(=O)NCCc2ccc(F)cc2)nnc1C1CCCCC1,inactive: -4.41%
7,CCn1c(Cc2ccccc2)nnc1SCC(=O)Nc1nnc(-c2ccccc2)s1,inconclusive: 11.8%
8,Cn1cnnc1SCc1ccc(-c2ccc(Br)cc2)o1,inactive: 3.06%
9,O=c1oc2ccccc2cc1-c1nc(-c2cccs2)cs1,inconclusive: 27.3%
10,CC(NC(=S)N1CCOCC1)c1ccccc1 (configuration not stated),inconclusive: 15.9%
11,Cc1ccc(S(=O)CCNC(=O)Cc2ccc(Cl)cc2)cc1 (configuration not stated),inactive: -5.02%
12,CN(C(=O)/C(N=Nc1cccc(C(F)(F)F)c1)=C(\O)C(F)(F)F)c1ccccc1,inconclusive: 25.8%
13,O=C(O)CSc1ccc(Oc2ccc(SCC(=O)O)cc2)cc1,inconclusive: 11.3%
14,Cc1cccc(-n2c(O)c(/C=N/NC(=O)c3ccccc3Cl)c3ccccc3c2=O)n1,inconclusive: 15.1%
15,C=CCC[C@@H](Cc1ccc(F)cc1)C(=O)OC[C@H](Cc1c[nH]c2ccccc12)NC(=O)[C@@H](CC=C)CC(=O)N(CCO)Cc1ccccc1,active: 41.9%
16,COC(=O)[C@@]1(Cc2ccc(OC)cc2)[C@H]2c3cc(C(=O)N(C)C)n(Cc4ccc(OC(F)(F)F)cc4)c3C[C@H]2CN1C(=O)c1ccccc1,inconclusive: 21.9%
17,Cc1cccc(NC(=S)NC(=O)C(c2ccccc2)c2ccccc2)n1,inconclusive: 13.9%
18,CCc1cc2ccc(C)cc2nc1SCC(=O)c1ccc(NC(C)=O)cc1,active: 68.5%
19,CN(C)S(=O)(=O)c1cccc(-c2nnc(SCc3ccc4c(c3)OCCO4)o2)c1,inactive: 4.18%

# Gathered by group, the entries above with bromine
row,Structure (SMILES),inhibition
3,O=C(CSc1nnc(C2CC2)n1C1CC1)c1ccc(Br)s1,inactive: 5.31%
4,COc1cc(/C=C2\C(=N)N3N=CSC3=NC2=O)cc(Br)c1OC(=O)c1ccco1,inactive: 0.426%
8,Cn1cnnc1SCc1ccc(-c2ccc(Br)cc2)o1,inactive: 3.06%

# Continuation:

row,Structure (SMILES),inhibition
1,NS(=O)(=O)c1ccc(N/C=C\C(=O)c2ccc(F)cc2)cc1,inconclusive: 19.8%
2,CC(C)NC(=O)CCCn1cc([N+](=O)[O-])cn1,inactive: -0.179%
3,Cn1cccc1C(=O)OCc1csc(-c2ccccc2)n1,inactive: -2.22%
4,CCCCCC(=O)N(O)C1CC(=O)N(c2ccccc2)C1=O (configuration not stated),active: 75.4%
5,Nc1ccc(C(=O)N2CCCC2)cc1,inconclusive: 15.6%
6,Cc1ccc(C(=O)Nc2ccc(S(=O)(=O)N3CCN(C)CC3)cc2)cc1,inconclusive: 19.8%
7,O=C(O)c1ccccc1NSc1ccccc1[N+](=O)[O-],inactive: 6.31%
8,Cn1nnc(C(O)CN2CCOCC2)n1 (configuration not stated),inactive: 9.96%
9,CCc1nnc(NC(=O)CSc2nnc(Cc3ccc(OC)cc3)o2)s1,inactive: -1.42%
10,Cc1ccc(NNC(=O)C(O)(c2cccc(C(F)(F)F)c2)c2cccc(C(F)(F)F)c2)cc1,active: 40.7%
11,CCC(C)NC(=O)C1=CCN(S(=O)(=O)c2ccc(C)cc2)CC1 (configuration not stated),inconclusive: 11.6%
12,CC1C(=O)N2CCCc3cc(S(=O)(=O)NCc4ccc(F)cc4)cc1c32 (configuration not stated),inconclusive: 14.2%
13,O=C(CSc1nnc(CNc2ccccc2)o1)c1ccc2c(c1)OCCO2,inconclusive: 28.3%
14,C/C1=C\CCC2C(/C=C(\C)CC1)OC(=O)C2CN1CCCCC1 (configuration not stated),inconclusive: 13.5%
15,CCCCCCCCc1nc(SCC(C)=O)n[nH]1,inconclusive: 14.4%
16,COc1ccc(CC(=O)Nc2ccc(N(C)C)c3ccccc23)cc1,inconclusive: 5.08%
17,Cc1ccc(C)c(N2CCN(C(=O)Cn3ncc4c([nH]c5ccc(C)cc54)c3=O)CC2)c1,inconclusive: 18.2%
18,COc1ccc(OC)c(Cc2nnc(CCC(=O)N3CCCCC3c3nccs3)o2)c1 (configuration not stated),inactive: -4.53%
19,CCSc1nnc(NC(=O)CSc2sc3c(O)cc(=O)[nH]c3c2C#N)s1,inactive: 4.51%
